Taken from: PubChem BioAssay AID1224827 (NIAID, 2016)
The whole screen tested about 3,800 reagents; shown is an unselected part. Of all reagents, about 2,200 (57%) are marked active. 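Active means a strong reporter change in either direction; calls are per siRNA, not per gene; qiagen siRNAs gave weaker effects.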 A number with no mark means an inactive call. The numbers tell different reagents against one gene apart. Not all columns of the deposit are shown.

Test: 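Confirm genes whose knock-down changes LPS-driven TNF promoter activity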 (follow-up of hits)
Cell system: RAW264.7 G9 mouse macrophage reporter clone
Reagent: single siRNA against mouse genes, 100 nM siRNA
Timing: siRNA for 2 days, then LPS about 16 h
Treatment: bacterial lipopolysaccharide (LPS), 10 ng/ml, cells fixed after overnight (about 16 h) stimulation
Detection: 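Imaged nuclear TNF reporter intensity, background removed, scaled per plate and to non-targeting control wells, as z-scores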
Direction: TNF reporter z-score, mean: higher = stronger Tnf promoter reporter signal; gene median z, three same-vendor siRNAs: higher = stronger Tnf reporter signal for the gene
Call rule: 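An siRNA is called active when its mean z-score over replicates is at least +2 or at most -2; control wells get no call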

gene | reagent no. | TNF reporter z-score, mean | gene median z, three same-vendor siRNAs
Hus1 | 1 | -0.792 | -3.04
Hus1 | 2 | -2.91 (active) | -3.04
Hus1 | 3 | -5 (active) | -3.04
Hus1 | 4 | 1.09 | -0.773
Hus1 | 5 | 0.699 | -0.773
Hus1 | 6 | -3.16 (active) | -0.773
Arhgef25 | 1 | -2.68 (active) | -3.54
Arhgef25 | 2 | -3.54 (active) | -3.54
Arhgef25 | 3 | -4.18 (active) | -3.54
Arhgef25 | 4 | 1.62 | -0.513
Arhgef25 | 5 | -0.513 | -0.513
Arhgef25 | 6 | -3.22 (active) | -0.513
Optn | 1 | 3.15 (active) | 0.791
Optn | 2 | 0.953 | 0.791
Optn | 3 | -1.56 | 0.791
Optn | 4 | 1.45 | 0.168
Optn | 5 | 0.445 | 0.168
Optn | 6 | -0.827 | 0.168
Slc25a28 | 1 | 0.161 | -1.26
Slc25a28 | 2 | -1.26 | -1.26
Slc25a28 | 3 | -4.8 (active) | -1.26
Slc25a28 | 4 | 0.808 | 0.269
Slc25a28 | 5 | 0.535 | 0.269
Slc25a28 | 6 | -0.0877 | 0.269
Ctcf | 1 | -0.357 | -1.13
Ctcf | 2 | -0.996 | -1.13
Ctcf | 3 | -4.52 (active) | -1.13
Ctcf | 4 | 1.04 | -1.77
Ctcf | 5 | 0.377 | -1.77
Ctcf | 6 | -3.6 (active) | -1.77
Adam10 | 1 | 4.72 (active) | 0.225
Adam10 | 2 | 0.225 | 0.225
Adam10 | 3 | -4.13 (active) | 0.225
Adam10 | 4 | -0.221 | -0.894
Adam10 | 5 | -0.88 | -0.894
Adam10 | 6 | -3.35 (active) | -0.894

Reformatted: entries from further up
Slc25a28 #2
- TNF reporter z-score, mean: -1.26
- gene median z, three same-vendor siRNAs: -1.26

Slc25a28 #3
- TNF reporter z-score, mean: -4.8 (active)
- gene median z, three same-vendor siRNAs: -1.26

Slc25a28 #4
- TNF reporter z-score, mean: 0.808
- gene median z, three same-vendor siRNAs: 0.269

Slc25a28 #5
- TNF reporter z-score, mean: 0.535
- gene median z, three same-vendor siRNAs: 0.269

Slc25a28 #6
- TNF reporter z-score, mean: -0.0877
- gene median z, three same-vendor siRNAs: 0.269

Ctcf #1
- TNF reporter z-score, mean: -0.357
- gene median z, three same-vendor siRNAs: -1.13

Ctcf #2
- TNF reporter z-score, mean: -0.996
- gene median z, three same-vendor siRNAs: -1.13

Ctcf #3
- TNF reporter z-score, mean: -4.52 (active)
- gene median z, three same-vendor siRNAs: -1.13

Ctcf #4
- TNF reporter z-score, mean: 1.04
- gene median z, three same-vendor siRNAs: -1.77

Ctcf #5
- TNF reporter z-score, mean: 0.377
- gene median z, three same-vendor siRNAs: -1.77

Ctcf #6
- TNF reporter z-score, mean: -3.6 (active)
- gene median z, three same-vendor siRNAs: -1.77

Adam10 #1
- TNF reporter z-score, mean: 4.72 (active)
- gene median z, three same-vendor siRNAs: 0.225

Additional results follow.
gene | reagent no. | TNF reporter z-score, mean | gene median z, three same-vendor siRNAs
Prpf39 | 1 | -3.28 (active) | -4.06
Prpf39 | 2 | -4.1 (active) | -4.06
Prpf39 | 3 | -4.6 (active) | -4.06
Prpf39 | 4 | 1.81 | 0.87
Prpf39 | 5 | 1.18 | 0.87
Prpf39 | 6 | -0.307 | 0.87
Tns4 | 1 | 0.0802 | -1.87
Tns4 | 2 | -1.87 | -1.87
Tns4 | 3 | -3.94 (active) | -1.87
Tns4 | 4 | 4.6 (active) | 1.81
Tns4 | 5 | 2.89 (active) | 1.81
Tns4 | 6 | 1.01 | 1.81
Fstl4 | 1 | -3.51 (active) | -3.87
Fstl4 | 2 | -3.74 (active) | -3.87
Fstl4 | 3 | -4.44 (active) | -3.87
Fstl4 | 4 | 5.37 (active) | 2.45
Fstl4 | 5 | 2.82 (active) | 2.45
Fstl4 | 6 | 1.03 | 2.45
Syngr1 | 1 | -2.74 (active) | -3.48
Syngr1 | 2 | -3.6 (active) | -3.48
Syngr1 | 3 | -3.68 (active) | -3.48
Syngr1 | 4 | 4.82 (active) | 0.649
Syngr1 | 5 | 0.284 | 0.649
Syngr1 | 6 | -0.905 | 0.649
Prrt3 | 1 | -3.55 (active) | -3.67
Prrt3 | 2 | -3.61 (active) | -3.67
Prrt3 | 3 | -6.36 (active) | -3.67
Prrt3 | 4 | 8.37 (active) | 2.78
Prrt3 | 5 | 4.63 (active) | 2.78
Prrt3 | 6 | -2.09 (active) | 2.78
Nxnl1 | 1 | -2.33 (active) | -4.65
Nxnl1 | 2 | -4.65 (active) | -4.65
Nxnl1 | 3 | -5.7 (active) | -4.65
Nxnl1 | 4 | 3.27 (active) | -0.7
Nxnl1 | 5 | -0.7 | -0.7
Nxnl1 | 6 | -3.04 (active) | -0.7
Mtmr3 | 1 | -1.02 | -2.6
Mtmr3 | 2 | -2.02 (active) | -2.6
Mtmr3 | 3 | -3.26 (active) | -2.6
Mtmr3 | 4 | 6.04 (active) | 0.643
Mtmr3 | 5 | 1.14 | 0.643
Mtmr3 | 6 | -2.51 (active) | 0.643
